In paper doi:10.1101/2021.08.09.455730:
No constants are given. Whether binding was seen depends on the method and setting. Binding seen in cells or lysates may run through a third protein. These calls come from enrichment with a bait or labelling near it, and not all partners need be listed.

Amino acid sequences for entries named in this document (tags omitted).
UniProt Q8BLR2, whole entry: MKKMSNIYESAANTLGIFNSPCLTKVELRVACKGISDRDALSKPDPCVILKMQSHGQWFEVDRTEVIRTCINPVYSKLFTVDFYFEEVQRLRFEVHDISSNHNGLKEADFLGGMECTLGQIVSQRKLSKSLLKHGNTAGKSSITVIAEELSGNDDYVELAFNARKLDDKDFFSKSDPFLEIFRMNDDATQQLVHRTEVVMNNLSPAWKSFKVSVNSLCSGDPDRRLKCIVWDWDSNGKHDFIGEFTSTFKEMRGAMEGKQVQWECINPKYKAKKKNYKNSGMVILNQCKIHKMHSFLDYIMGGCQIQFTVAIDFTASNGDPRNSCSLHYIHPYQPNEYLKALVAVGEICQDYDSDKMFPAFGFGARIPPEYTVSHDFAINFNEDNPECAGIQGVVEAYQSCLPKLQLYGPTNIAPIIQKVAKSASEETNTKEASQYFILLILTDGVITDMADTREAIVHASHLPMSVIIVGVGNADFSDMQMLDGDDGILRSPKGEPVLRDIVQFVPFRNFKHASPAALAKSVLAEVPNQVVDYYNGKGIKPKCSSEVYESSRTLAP

Biological target: GST-Cpne4 (UniProt Q8BLR2)
Experiment: affinity purification with mass spectrometry

With “Stx1b (Syntaxin 1b) (from UniProt P61264 1-288)” the binding was “binds”.
